# Test results published in PubChem BioAssay AID540276 (National Center for Advancing Translational Sciences (NCATS), 2011).
# Out of some 300,000 compounds screened, about 5,400 (1.8%) were called active. The shares of active, inactive and inconclusive entries below differ from those in the screen. Calls follow the shape of the full dose curve; tested in HEK293 cells. Potencies of inconclusive entries are doubtful fits and often do not repeat.
# Assay: qHTS for inhibitors of binding or entry into cells for Marburg Virus
# Settings: Marburg virus pseudotyped entry inhibition, cell reporter; series mostly up to 37.8 µM
# Potency is read from the fitted curve at half-maximal effect.
row,Compound,Potency
1,CC(=O)Nc1ccc(C(=O)NCC(=O)OCc2c(F)cccc2Cl)cc1,inactive
2,NC(=O)[C@H](Cc1cc2ccccc2s1)NC(=O)[C@@H]1CC2(CC(c3cccc(NC(=O)[C@@H]4CCC(=O)N4)c3)=NO2)CN1C(=O)/C=C/Sc1ccccc1 (stereo partly specified),inactive
3,CCN(C(=O)CSc1nnc(-c2cccc(F)c2)n1N)c1c(N)n(Cc2ccccc2)c(=O)[nH]c1=O,"inconclusive: 35.5 µM [activator, partial curve, poor fit]"
4,CNC(=O)c1ccccc1NC(=O)c1c(O)c2c([nH]c1=O)CCCC2,inactive
5,CCOc1ccccc1NC(=O)c1cc(Cl)ccc1NC(=O)c1ccco1,"inconclusive: 29.1 µM [inhibitor, single point]"
6,Cc1cc(C)cc(C(=O)Nc2nc3ccccc3[nH]2)c1,"inconclusive: 1.58 µM [activator, partial curve, poor fit]"
7,O=c1c2cn[nH]c2nc(SCc2c(F)cccc2F)n1-c1ccc(Cl)cc1,"inconclusive: 35.5 µM [inhibitor, partial curve, poor fit]"
8,COc1ccc(NC(=O)C(=S)N2CCCC2)cc1,"inconclusive: 1.26 µM [activator, single point]"
9,CCOc1ccccc1OCC(=O)NCCc1ccc(S(N)(=O)=O)cc1,inactive
10,O=c1c2cc(N3CCOCC3)ccc2[nH]c(=S)n1Cc1cccc(Cl)c1,"inconclusive: 6.51 µM [inhibitor, single point]"
11,O=C(CSc1ccc(C(F)(F)F)cc1[N+](=O)[O-])Nc1ccc2ccccc2c1,"inconclusive: 1.26 µM [activator, full curve]"
12,COc1ccc(CCNC(=O)c2ccc3c(c2)OCCO3)cc1,"inconclusive: 0.631 µM [activator, full curve, poor fit]"
13,CSCCC(NS(=O)(=O)c1ccccc1F)C(=O)N1CCCCCCC1 (stereo unspecified),inactive
14,O=C(CSc1n[nH]c(-c2ccco2)n1)Nc1ccccc1,inactive
15,CC(C)COc1ccc(C(=O)Nc2cc(-c3ccccc3)no2)cc1,"inconclusive: 15.8 µM [activator, partial curve, poor fit]"
16,Cc1cc2c(SCC(=O)N3CCN(c4ccccc4)CC3)ncnc2s1,"inconclusive: 3.55 µM [activator, single point]"
17,O=C(COc1cccc2c1CCN(Cc1ccc(Br)cc1)C2=O)NCc1ccco1,"inconclusive: 12.6 µM [inhibitor, single point]"
18,COc1ccccc1NC(=O)NCCC1=CCCCC1,"inconclusive: 1.46 µM [inhibitor, full curve, poor fit]"
19,N#C[C@@H](Cc1ccc(O)c(O)c1)C(=O)N1CCc2ccccc21,"inconclusive: 0.631 µM [inhibitor, full curve, poor fit]"
20,CCOC(=O)c1sc(NC(=O)CN2C(=O)NC3(CC(C)CC(C)(C)C3)C2=O)c(C(=O)OCC)c1C (stereo unspecified),inactive
21,COc1ccccc1N1CCN(C(=O)CSc2nnc(-c3ccoc3C)o2)CC1,"inconclusive: 8.91 µM [inhibitor, partial curve]"
22,Oc1ccc(Cl)cc1CNCC1CCCO1 (stereo unspecified),"inconclusive: 2.91 µM [inhibitor, partial curve]"
23,COc1ccc(NS(=O)(=O)c2ccc(C)c(C(=O)NC3CCN(Cc4ccccc4)CC3)c2)cc1,"inconclusive: 5.01 µM [inhibitor, partial curve, poor fit]"
24,O=C(O)c1ccc(NC2=C(n3nnc4ccccc43)C(=O)c3ccccc3C2=O)cc1,"inconclusive: 20 µM [inhibitor, single point]"

# A few values from the list.
# Under Potency, CCOc1ccccc1NC(=O)c1cc(Cl)ccc1NC(=O)c1ccco1 has the entry inconclusive: 29.1 µM [inhibitor, single point]
# Under Potency, CCOC(=O)c1sc(NC(=O)CN2C(=O)NC3(CC(C)CC(C)(C)C3)C2=O)c(C(=O)OCC)c1C (stereo unspecified) has the entry inactive
# Under Potency, CC(=O)Nc1ccc(C(=O)NCC(=O)OCc2c(F)cccc2Cl)cc1 has the entry inactive

# Next part

row,Compound,Potency
1,CCN1C(=NCc2ccco2)N[C@@H](c2ccccc2)[C@H](C(=O)OC)[C@H]1C,inactive
2,COc1ccc(NC(=O)N(CCO)Cc2cc3c(C)cc(C)cc3[nH]c2=O)cc1,"inconclusive: 20 µM [inhibitor, single point]"
3,O=C(COC(=O)C1CC2CCCC(C1)C2=O)NNC(=O)c1ccc([N+](=O)[O-])cc1 (stereo unspecified),"inconclusive: 1.26 µM [inhibitor, single point]"
4,Cc1ccc(N=Cc2ccc[nH]2)c(O)c1,inactive
5,CCCC(=O)Nc1nc2ccc(NC(=O)c3ccc(Br)o3)cc2s1,"inconclusive: 31.6 µM [inhibitor, single point]"
6,CC(C)(C)NC(=O)Nc1ccc(Cn2cc(C(F)(F)F)ccc2=O)cc1,"inconclusive: 2.51 µM [activator, full curve, poor fit]"
7,O=C(COC(=O)Cc1ccc(-c2ccccc2)cc1)NCc1ccccc1,inactive
8,Cc1ccc2c(Cl)cc(Cl)c(O)c2n1,active: 11.2 µM
9,Cn1c(=O)c(C(=O)c2ccccc2)nc2ccccc21,inactive
10,Cc1cc(OCCCn2ccnc2)cc(C(C)C)c1,"inconclusive: 20 µM [activator, single point]"
11,CC(=O)Nc1ccc(S(=O)(=O)Oc2cccc(N3C(=O)C4CCCCC4C3=O)c2)cc1 (stereo unspecified),"inconclusive: 6.51 µM [activator, single point]"
12,COc1ccc(N2CCN(/C(=N\S(=O)(=O)c3ccc(C)cc3)Nc3nc(C)cc(C)n3)CC2)cc1,inactive
13,O=C(NC1CCCCCC1)c1cc2c(=O)n3ccccc3nc2s1,inactive
14,CN(C)c1ccc(CNc2ccc3c(c2)ncn3C)cc1,"inconclusive: 23.1 µM [inhibitor, partial curve]"
15,CC(=O)c1cccc(N(C(=O)c2ccco2)C(C(=O)NC2CCCC2)c2ccc(N3CCOCC3)cc2)c1 (stereo unspecified),inactive
16,CC(=O)NCCCc1nc2ccccc2n1Cc1c(F)cccc1Cl,"inconclusive: 35.5 µM [inhibitor, partial curve, poor fit]"
17,CCCCOc1ccc(C(=O)N/C(=C\c2ccc(OC)cc2)C(=O)OCc2ccco2)cc1,inactive
18,COc1ccc(CC(=O)OCC(=O)Nc2ccc(C(=O)Nc3ccc(OC)cc3)cc2)cc1,inactive
19,Cc1ccc(N2C(=O)[C@@H]3Cc4ccccc4CN3C2=O)cc1,"inconclusive: 32.6 µM [activator, single point]"
20,O=C(/C=C/c1cccc([N+](=O)[O-])c1)NCc1ccccc1,"inconclusive: 31.6 µM [activator, single point]"
21,CCCCOc1ccc(C2=NC(c3ccncc3)=Nc3ccc(OCC)cc3N2)cc1,"inconclusive: 0.562 µM [inhibitor, full curve, poor fit]"
22,CCc1ccc(-c2cn(C3CCCCC3)c(=S)[nH]2)cc1,inactive
23,CCN(CC)S(=O)(=O)c1cc(C(=O)Nc2ccccc2[N+](=O)[O-])ccc1Cl,"inconclusive: 29.1 µM [inhibitor, single point]"
24,Cc1cccc(C(=O)OC(C)C(=O)NC2CCCc3ccccc32)c1O (stereo unspecified),inactive

# Structural class: the compounds so far containing bromine.
row,Compound,Potency
17,O=C(COc1cccc2c1CCN(Cc1ccc(Br)cc1)C2=O)NCc1ccco1,"inconclusive: 12.6 µM [inhibitor, single point]"
5,CCCC(=O)Nc1nc2ccc(NC(=O)c3ccc(Br)o3)cc2s1,"inconclusive: 31.6 µM [inhibitor, single point]"

# (further entries)

row,Compound,Potency
1,CCc1ccc(CNC(=O)Cn2nc(C)n3c(cc4cc(C)ccc43)c2=O)cc1,inactive
2,Cc1ccccc1C(=O)NNC(=O)c1ccncc1,inactive
3,Cc1ccc(SCC(=O)NC(=O)Nc2ccc3c(c2)OCCO3)cc1C,"inconclusive: 0.447 µM [activator, full curve, poor fit]"
4,O=C(c1ccc(F)cc1)C(CCCCCC(CN1CCOCC1)C(=O)c1ccc(F)cc1)CN1CCOCC1 (stereo unspecified),"inconclusive: 20 µM [inhibitor, single point]"
5,CCc1ccc(NC(=O)CN2C(=O)C(c3ccc(C)cc3)=NC23CCCCC3)cc1,"inconclusive: 1 µM [inhibitor, full curve, poor fit]"
6,Cc1ccc(NCc2nnc(SCCN3CCCCC3)n2CC2CCCO2)cc1Cl (stereo unspecified),"inconclusive: 29.1 µM [inhibitor, single point]"
7,CC(C)(C)NCCCOc1ccc(Cl)cc1C(C)(C)C,"inconclusive: 20.6 µM [inhibitor, single point]"
8,COc1ccccc1CC(=O)NNC(=O)c1cccs1,"inconclusive: 5.62 µM [inhibitor, single point]"
9,CCOc1cccc2c1N[C@@H](c1ccc(C(=O)O)cc1)[C@H]1CC=C[C@@H]21,"inconclusive: 35.5 µM [inhibitor, single point]"
10,Cc1cc(F)ccc1S(=O)(=O)Nc1ccccc1C(=O)Nc1ncn[nH]1,inactive
11,COc1ccc(N2CCN(Cc3csc(C)c3-c3ccc(C)cc3)CC2)cc1,"inconclusive: 35.5 µM [inhibitor, partial curve, poor fit]"
12,CCOC(=O)c1sc2nc(C)nc(NCc3ccc(F)cc3)c2c1C,"inconclusive: 17.8 µM [inhibitor, partial curve, poor fit]"
13,COc1cccc2cc(-c3ccnc(N)n3)oc12,inactive
14,CCOc1ccccc1CNC(=O)C1CCCN(c2ncnc3c2nc2n3CCCCC2)C1 (stereo unspecified),"inconclusive: 12.6 µM [inhibitor, partial curve, poor fit]"
15,Cc1cccc(OCCCC(=O)Nc2nccs2)c1,inactive
16,CCOc1ccc2nc(N(Cc3ccccc3)C(=O)CCNC(C)=O)sc2c1,inactive
17,Nc1ccc(Nc2nc3ccccc3[nH]2)cc1,"inconclusive: 0.0891 µM [inhibitor, full curve, poor fit]"
18,CCCn1c(=O)c2c(nc3n2CCN3Cc2ccco2)n(C)c1=O,"inconclusive: 3.16 µM [activator, partial curve, poor fit]"
19,O=C(Cc1ccccc1)Nc1cc(Cl)ccc1Sc1ccccc1,"inconclusive: 0.794 µM [inhibitor, full curve, poor fit]"
20,COC(=O)N=Nc1c(O)n(Cc2ccccc2)c2ccccc12,inactive
21,CCOCCCNCc1ccc(OC)cc1,inactive
22,Clc1ccc2nc(-c3ccncc3)cc(-c3ccccc3)c2c1,inactive
23,COc1cccc(CSc2nc3ccccc3cc2C=O)c1,"inconclusive: 3.55 µM [inhibitor, full curve]"
